Results taken from PMC8529287.
Results are given in words; binding and its absence hold for the method and conditions named. Some entries that bind do so weakly or less than the wild type. Sequences can lack the tags named with a protein. Blank lines part the entries; values can stand above or below the binder they belong to.

Protein sequences, listed by entry. Tags and fused reporters are not part of them. Lines headed by an entry give the natural chain unless they say otherwise; changes in a name come on top.
UniProt P02452: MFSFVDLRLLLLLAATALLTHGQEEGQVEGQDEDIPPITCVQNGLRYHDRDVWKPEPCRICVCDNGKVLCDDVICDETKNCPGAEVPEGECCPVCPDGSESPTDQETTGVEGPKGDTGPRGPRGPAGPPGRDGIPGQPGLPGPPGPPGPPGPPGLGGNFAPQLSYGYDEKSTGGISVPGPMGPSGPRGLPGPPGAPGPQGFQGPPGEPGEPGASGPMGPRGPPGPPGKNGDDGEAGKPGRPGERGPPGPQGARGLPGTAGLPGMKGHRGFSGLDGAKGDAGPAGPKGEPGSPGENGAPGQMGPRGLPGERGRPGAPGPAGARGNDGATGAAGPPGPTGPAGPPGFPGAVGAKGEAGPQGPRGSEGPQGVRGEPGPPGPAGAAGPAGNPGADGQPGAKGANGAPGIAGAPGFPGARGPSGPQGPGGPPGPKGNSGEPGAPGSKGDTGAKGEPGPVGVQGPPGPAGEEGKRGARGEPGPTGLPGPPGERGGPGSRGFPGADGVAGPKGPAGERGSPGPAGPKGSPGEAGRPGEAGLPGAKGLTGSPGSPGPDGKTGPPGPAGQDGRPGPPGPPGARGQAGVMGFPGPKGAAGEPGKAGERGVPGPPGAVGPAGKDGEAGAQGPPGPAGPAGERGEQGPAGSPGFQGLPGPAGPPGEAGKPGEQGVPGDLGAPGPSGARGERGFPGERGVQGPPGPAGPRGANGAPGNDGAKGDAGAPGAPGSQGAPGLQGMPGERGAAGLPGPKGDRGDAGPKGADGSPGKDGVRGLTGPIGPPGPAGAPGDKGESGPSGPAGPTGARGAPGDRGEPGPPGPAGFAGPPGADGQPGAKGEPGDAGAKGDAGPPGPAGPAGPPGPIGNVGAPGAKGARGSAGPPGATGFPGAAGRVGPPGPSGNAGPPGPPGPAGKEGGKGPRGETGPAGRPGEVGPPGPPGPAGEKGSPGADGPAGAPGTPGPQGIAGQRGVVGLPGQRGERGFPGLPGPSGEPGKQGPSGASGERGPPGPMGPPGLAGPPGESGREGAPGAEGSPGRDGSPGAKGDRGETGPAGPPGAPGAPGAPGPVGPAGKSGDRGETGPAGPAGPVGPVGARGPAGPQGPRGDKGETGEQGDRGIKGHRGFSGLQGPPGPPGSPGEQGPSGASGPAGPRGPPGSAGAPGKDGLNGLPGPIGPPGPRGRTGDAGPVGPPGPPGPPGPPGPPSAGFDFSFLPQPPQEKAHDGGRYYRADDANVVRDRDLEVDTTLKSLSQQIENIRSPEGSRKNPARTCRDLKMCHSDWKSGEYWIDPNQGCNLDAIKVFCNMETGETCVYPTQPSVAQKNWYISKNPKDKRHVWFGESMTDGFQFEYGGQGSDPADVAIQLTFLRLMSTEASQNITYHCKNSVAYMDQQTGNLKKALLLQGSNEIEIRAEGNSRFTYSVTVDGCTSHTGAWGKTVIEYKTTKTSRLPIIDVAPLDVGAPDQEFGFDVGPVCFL
UniProt P08123: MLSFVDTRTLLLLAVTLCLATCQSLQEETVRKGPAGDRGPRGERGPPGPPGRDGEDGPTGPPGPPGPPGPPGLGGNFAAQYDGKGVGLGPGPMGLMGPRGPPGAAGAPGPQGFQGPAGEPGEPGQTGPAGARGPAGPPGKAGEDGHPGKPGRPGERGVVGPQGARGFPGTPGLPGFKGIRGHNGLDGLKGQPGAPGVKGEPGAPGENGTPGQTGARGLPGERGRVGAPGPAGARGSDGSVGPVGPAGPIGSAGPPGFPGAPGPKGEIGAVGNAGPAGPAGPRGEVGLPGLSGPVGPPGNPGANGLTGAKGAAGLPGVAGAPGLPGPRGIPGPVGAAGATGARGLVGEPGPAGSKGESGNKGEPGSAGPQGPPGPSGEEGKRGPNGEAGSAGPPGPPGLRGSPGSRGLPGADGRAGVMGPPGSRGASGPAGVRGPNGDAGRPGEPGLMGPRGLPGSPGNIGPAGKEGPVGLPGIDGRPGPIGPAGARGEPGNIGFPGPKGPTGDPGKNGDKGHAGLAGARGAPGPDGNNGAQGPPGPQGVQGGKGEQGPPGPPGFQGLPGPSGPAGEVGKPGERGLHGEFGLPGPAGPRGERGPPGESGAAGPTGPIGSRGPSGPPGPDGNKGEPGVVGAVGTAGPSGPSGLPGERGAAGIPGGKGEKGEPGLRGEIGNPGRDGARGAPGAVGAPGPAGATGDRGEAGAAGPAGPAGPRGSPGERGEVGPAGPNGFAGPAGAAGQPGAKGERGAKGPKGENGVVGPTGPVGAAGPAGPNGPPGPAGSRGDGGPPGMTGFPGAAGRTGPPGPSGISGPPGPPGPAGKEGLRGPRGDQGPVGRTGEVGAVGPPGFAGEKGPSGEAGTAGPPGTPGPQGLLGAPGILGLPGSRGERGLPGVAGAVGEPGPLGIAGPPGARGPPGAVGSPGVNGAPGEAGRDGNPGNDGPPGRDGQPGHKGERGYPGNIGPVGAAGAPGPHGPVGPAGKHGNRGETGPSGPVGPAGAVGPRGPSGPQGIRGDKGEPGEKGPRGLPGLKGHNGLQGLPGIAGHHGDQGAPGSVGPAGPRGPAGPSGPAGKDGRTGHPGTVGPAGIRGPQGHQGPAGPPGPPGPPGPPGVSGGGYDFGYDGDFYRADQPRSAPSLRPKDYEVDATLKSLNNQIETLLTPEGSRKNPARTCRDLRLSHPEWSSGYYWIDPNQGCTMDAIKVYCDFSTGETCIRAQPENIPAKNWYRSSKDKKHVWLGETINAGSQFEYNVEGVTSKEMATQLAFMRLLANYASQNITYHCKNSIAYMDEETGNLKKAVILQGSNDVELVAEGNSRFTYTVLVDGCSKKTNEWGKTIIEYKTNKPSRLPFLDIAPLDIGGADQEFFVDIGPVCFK

Legend:
[1] = target: T1, mock treated collagen I (human) (UniProt P02452+P08123); test: fluorescence based immune binding assay; collagen I (mock, MMP1 or MMP9 treated) coated on 96-well plates and methanol-fixed; stained with biotinylated Fc fusion protein (5 μg/ml, 1 hour at RT), then fluorescent Streptavidin; imaged on Odyssey Sa (LI-COR); both purified
[2] = target: T1, mock treated collagen I (human); test: ELISA; ELISA based immune binding assay: collagen I (mock, MMP1 or MMP9 treated) coated on 96-well plates in MMP buffer overnight at 4°C and methanol-fixed; stained with biotinylated Fc fusion protein (5 μg/ml, 1 hour at RT), then Streptavidin-HRP and TMB; absorbance 450 nm minus 570 nm; both purified
[3] = target: T1, mock treated collagen I (human); test: fluorescence based immune binding assay; fluorescence based immune binding assay of biotinylated LAIR-1-Fc (5 μg/ml) on coated collagen I, after pre-treatment of the coated plate with LAIR-2-Fc or LAIR-2-Fc dead (2 hours at 37°C in culture medium); both purified
[4] = target: T1, mock treated collagen I (human); test: ELISA; ELISA based immune binding assay of biotinylated LAIR-1-Fc (5 μg/ml) on 5 μg/ml coated collagen I, after pre-treatment of the coated plate with LAIR-2-Fc or LAIR-2-Fc dead (indicated concentrations, 2 hours at 37°C in culture medium); both purified

- binding [1]: binds
- binding [2]: binds
B1: LAIR-2-Fc (Fc fusion, UniProt Q6ISS4 22-152)
chain: QEGALPRPSISAEPGTVISPGSHVTFMCRGPVGVQTFRLEREDRAKYKDSYNVFRLGPSESEARFHIDSVSEGNAGLYRCLYYKPPGWSEHSDFLELLVKESSGGPDSPDTEPGSSAGTVPGTEASGFDAP
modifications: biotinylated where used for staining in the immune binding assays

- binding [1]: binds
- binding [2]: binds
B2: LAIR-2-Fc dead (Fc fusion, UniProt Q6ISS4 22-152)
chain: B1 chain
modifications: biotinylated where used for staining in the immune binding assays

- binding [1]: binds
- binding [3]: binds
- binding [2]: binds
- binding [4]: binds
B3: LAIR-1-Fc fusion protein (Fc fusion, UniProt Q6GTX8 22-165)
chain: QEEDLPRPSISAEPGTVIPLGSHVTFVCRGPVGVQTFRLERDSRSTYNDTEDVSQASPSESEARFRIDSVREGNAGLYRCIYYKPPKWSEQSDYLELLVKESSGGPDSPDTEPGSSAGPTQRPSDNSHNEHAPASQGLKAEHLY
modifications: biotinylated
